Source: the supplement of paper PMC10849652
This is one part of the list. Residues, ends and D or L forms follow the SMILES beside them. *: point of attachment. Cbz = O=C(OCc1ccccc1)*

The chains behind the UniProt entries cited, without tags or fusion partners. Where a name states a change or a piece, a line headed by the entry shows the natural chain unless it says otherwise.
UniProt Q7Z6E9: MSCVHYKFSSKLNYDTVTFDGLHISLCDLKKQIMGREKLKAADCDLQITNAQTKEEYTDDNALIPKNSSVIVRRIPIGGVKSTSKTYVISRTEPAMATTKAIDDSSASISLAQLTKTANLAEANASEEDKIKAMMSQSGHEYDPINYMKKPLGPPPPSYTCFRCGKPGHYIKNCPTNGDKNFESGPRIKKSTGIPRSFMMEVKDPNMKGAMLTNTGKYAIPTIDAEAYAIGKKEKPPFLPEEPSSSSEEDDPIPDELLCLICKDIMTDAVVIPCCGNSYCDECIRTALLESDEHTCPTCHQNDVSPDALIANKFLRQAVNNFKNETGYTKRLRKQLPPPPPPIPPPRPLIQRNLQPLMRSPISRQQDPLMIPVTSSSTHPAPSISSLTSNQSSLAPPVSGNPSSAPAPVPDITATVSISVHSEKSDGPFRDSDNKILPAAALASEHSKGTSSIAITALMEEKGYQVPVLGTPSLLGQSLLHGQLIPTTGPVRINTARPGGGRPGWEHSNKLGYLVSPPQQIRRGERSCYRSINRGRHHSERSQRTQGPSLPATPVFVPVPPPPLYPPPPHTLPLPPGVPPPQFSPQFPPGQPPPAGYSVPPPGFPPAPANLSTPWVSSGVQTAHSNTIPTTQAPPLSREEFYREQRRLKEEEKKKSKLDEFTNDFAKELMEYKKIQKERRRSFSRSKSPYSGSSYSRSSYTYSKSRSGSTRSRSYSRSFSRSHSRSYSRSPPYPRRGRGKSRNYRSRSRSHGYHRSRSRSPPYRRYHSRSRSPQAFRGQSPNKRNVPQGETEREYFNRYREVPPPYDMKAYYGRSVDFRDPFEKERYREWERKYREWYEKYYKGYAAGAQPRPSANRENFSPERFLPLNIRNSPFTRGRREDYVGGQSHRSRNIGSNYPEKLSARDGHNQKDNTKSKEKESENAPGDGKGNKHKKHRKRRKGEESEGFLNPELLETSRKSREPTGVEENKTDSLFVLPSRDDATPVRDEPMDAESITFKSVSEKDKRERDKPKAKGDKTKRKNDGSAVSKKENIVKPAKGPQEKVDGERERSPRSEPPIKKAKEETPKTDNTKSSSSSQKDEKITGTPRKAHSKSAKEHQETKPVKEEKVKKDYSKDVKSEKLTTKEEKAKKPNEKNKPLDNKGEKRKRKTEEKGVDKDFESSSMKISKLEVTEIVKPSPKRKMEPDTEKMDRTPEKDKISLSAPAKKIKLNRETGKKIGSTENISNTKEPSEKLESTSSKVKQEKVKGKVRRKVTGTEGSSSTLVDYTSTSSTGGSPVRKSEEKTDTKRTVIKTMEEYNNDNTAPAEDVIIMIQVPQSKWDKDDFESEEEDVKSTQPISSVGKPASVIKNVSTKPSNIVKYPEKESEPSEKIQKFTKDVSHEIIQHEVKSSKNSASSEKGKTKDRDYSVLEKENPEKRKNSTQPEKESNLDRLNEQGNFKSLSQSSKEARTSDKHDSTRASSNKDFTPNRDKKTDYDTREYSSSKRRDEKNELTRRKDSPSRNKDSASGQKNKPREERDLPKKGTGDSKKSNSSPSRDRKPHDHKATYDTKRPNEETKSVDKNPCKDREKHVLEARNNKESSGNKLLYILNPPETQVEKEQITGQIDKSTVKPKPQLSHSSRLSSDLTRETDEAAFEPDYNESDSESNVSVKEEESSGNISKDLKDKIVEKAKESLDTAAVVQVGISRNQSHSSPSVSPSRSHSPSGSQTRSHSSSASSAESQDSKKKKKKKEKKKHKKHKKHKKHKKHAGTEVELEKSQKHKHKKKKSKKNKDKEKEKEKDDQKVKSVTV
UniProt Q92878: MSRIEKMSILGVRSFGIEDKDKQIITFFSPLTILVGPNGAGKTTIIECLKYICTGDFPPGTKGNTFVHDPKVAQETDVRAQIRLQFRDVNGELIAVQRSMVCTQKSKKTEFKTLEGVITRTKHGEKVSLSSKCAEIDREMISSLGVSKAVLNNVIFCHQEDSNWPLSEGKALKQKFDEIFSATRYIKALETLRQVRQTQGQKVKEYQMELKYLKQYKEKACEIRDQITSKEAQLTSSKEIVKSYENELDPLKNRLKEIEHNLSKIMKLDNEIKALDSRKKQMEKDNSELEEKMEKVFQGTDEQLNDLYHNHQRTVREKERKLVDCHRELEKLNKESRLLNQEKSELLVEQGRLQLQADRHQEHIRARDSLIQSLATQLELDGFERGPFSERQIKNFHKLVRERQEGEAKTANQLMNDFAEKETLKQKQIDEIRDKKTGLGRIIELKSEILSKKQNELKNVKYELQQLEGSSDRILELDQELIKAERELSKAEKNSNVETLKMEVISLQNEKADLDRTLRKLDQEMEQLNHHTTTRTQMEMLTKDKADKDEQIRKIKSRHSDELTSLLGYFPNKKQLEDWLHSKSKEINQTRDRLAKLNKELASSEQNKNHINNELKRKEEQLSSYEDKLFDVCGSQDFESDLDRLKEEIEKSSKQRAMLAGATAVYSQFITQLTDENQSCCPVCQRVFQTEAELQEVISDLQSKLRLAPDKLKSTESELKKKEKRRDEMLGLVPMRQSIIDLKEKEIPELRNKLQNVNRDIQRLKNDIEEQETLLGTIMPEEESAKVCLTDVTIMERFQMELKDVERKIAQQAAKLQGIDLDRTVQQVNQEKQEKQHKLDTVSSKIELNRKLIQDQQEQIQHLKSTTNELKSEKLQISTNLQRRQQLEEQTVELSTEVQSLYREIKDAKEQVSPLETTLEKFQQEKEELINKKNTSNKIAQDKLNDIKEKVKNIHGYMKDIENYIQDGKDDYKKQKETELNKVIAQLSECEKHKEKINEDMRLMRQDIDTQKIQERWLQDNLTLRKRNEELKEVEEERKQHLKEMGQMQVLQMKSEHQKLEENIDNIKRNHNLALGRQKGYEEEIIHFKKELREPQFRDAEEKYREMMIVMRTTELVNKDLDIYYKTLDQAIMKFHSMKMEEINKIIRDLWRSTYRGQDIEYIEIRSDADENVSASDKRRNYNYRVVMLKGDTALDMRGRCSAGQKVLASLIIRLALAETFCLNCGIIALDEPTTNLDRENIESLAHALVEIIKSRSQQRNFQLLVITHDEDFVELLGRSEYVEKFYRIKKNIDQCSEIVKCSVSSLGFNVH
UniProt Q15291, whole entry, looked up: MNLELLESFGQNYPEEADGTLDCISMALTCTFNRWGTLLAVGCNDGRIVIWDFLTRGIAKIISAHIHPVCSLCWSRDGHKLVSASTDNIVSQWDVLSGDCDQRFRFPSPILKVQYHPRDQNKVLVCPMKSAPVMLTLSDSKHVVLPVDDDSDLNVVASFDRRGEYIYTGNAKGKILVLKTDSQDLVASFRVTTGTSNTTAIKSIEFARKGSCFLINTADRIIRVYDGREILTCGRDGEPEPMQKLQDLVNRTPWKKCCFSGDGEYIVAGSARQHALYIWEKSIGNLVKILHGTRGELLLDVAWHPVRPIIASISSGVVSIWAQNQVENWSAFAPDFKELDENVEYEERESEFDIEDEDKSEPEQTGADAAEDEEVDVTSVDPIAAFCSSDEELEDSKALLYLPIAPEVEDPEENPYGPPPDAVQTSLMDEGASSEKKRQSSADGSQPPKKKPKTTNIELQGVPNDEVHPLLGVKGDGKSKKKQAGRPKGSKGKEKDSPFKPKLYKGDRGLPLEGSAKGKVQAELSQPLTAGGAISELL
UniProt O15315: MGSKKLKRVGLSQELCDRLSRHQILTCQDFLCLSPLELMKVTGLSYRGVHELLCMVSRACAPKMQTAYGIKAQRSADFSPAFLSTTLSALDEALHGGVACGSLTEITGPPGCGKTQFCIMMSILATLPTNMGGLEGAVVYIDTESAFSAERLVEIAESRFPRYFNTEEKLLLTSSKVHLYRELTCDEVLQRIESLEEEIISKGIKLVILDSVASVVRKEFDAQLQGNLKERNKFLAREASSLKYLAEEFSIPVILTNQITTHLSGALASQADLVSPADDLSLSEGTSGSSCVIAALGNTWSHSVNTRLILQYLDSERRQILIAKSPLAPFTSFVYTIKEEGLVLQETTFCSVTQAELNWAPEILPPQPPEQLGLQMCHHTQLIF
UniProt Q9H082: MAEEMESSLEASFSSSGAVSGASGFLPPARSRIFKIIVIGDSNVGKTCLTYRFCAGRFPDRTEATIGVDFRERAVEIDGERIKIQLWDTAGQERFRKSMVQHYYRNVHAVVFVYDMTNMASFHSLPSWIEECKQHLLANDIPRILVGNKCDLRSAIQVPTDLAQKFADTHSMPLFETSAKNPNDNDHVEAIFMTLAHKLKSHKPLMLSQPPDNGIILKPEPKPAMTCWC
UniProt P51151: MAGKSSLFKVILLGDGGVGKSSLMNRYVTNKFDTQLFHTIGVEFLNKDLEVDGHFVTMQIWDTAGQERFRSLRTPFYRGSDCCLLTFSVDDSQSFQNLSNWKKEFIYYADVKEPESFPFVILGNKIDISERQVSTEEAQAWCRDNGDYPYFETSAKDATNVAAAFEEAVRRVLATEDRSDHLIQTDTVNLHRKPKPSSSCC
UniProt Q9NW64: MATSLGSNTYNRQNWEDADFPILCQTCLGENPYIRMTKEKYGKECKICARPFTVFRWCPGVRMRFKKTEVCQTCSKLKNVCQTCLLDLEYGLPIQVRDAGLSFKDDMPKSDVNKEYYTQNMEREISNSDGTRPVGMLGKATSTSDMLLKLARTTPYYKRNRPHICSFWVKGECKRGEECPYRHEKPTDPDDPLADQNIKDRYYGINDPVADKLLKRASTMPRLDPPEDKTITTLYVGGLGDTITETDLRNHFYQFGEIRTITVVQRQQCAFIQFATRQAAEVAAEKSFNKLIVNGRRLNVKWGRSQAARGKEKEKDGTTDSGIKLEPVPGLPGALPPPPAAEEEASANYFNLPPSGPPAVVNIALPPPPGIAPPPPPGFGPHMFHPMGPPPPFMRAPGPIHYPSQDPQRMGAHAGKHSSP

Assays:
Experiment in all cases: log2 fold change, soluble protein after heating vs DMSO (PISA); higher = thermal stabilisation; K562 cells, 10 uM, 30 min; active = over 0.2 and 3.5 SD of the protein, either way, in both replicates (recomputed)
erlotinib = compound: C#Cc1cccc(Nc2ncnc3cc(OCCOC)c(OCCOC)cc23)c1 [erlotinib]
How it was run: (§1)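 Soluble protein was defined as the supernatant after 21,000xg for 90 min. It came from K562 cells at 2×10^6 cells/mL given 10 μM compound for 30 min, heated in aliquots for 3 min across 48°C-58°C, pooled, and extracted in PBS with 0.5% NP-40 at 4°C, and was quantified by TMTpro 16plex LC-MS/MS with equalised channel sums. Thermal stability against control samples, from duplicates, is reported as log2 fold change.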

[1] = compound: C/C(=N\NC(=O)C1=CC(=CC=C1)S(=O)(=O)N2CCOCC2)/C3=C(C=CC(=C3)Cl)O
How it was run: as §1

[2] = compound: C1=CC(=C(C=C1Cl)C2=NC3=NC=CN=C3C(=N2)NC4=CC=NC=C4)F
How it was run: as §1

[3] = compound: C1=CC(=CC=C1C2=NC3=C(N2)C=C(C=C3)C(=O)N)OC4=CC=C(C=C4)Cl
How it was run: as §1

[4] = compound: C1=CC2=C(C=CC(=C2)/C=C\3/C(=O)NC(=NCC4=CC=CS4)S3)N=C1
How it was run: as §1

[5] = compound: C1=CC2=NC=CN=C2C=C1/C=C/3\C(=O)NC(=O)S3
How it was run: as §1

[6] = compound: C1=CC=C(C=C1)C2=NC(=C(N2)C3=CC=NC=C3)C4=CC(=C(C=C4)Cl)O
How it was run: as §1

[7] = compound: C1=CC=C2C(=C1)C3=NNC4=CC=CC(=C43)C2=O
How it was run: as §1

[8] = compound: C1CCN(C1)C(=O)NC2=CC=CC(=C2)NC3=NC=C(C(=N3)NCCC4=CN=CN4)Br
How it was run: as §1

[9] = compound: C1CN(CCC1(CC2=CC=C(C=C2)Cl)N)C3=NC=NC4=C3C=CN4
How it was run: as §1

IRAK-1-4 Inhibitor I = compound: C1COCCN1CCN2C3=CC=CC=C3N=C2NC(=O)C4=CC(=CC=C4)[N+](=O)[O-] [IRAK-1-4 Inhibitor I]
How it was run: as §1

ibrutinib = compound: C=CC(=O)N1CCC[C@@H](n2nc(-c3ccc(Oc4ccccc4)cc3)c3c(N)ncnc32)C1 [ibrutinib]
How it was run: as §1

[10] = compound: CC(=O)c1cnc2ccc(-c3cc(Cl)c(O)c(Cl)c3)nc2c1N[C@H]1CC[C@H](CN(C)C)CC1
How it was run: as §1

ralimetinib = compound: CC(C)(C)Cn1c(N)nc2ccc(-c3[nH]c(C(C)(C)C)nc3-c3ccc(F)cc3)nc21 [ralimetinib]
How it was run: as §1

[11] = compound: CC(C)(O)CC(=O)NCCn1ccc2ncnc(Nc3ccc(Oc4cccc(C(F)(F)F)c4)c(Cl)c3)c21
How it was run: as §1

[12] = compound: CC(C)C1=C2N=C(C=C(N2N=C1)NCC3=CC=CC=C3)NCCCCCCN
How it was run: as §1

[13] = compound: CC(C)C[C@@H](C=O)NC(=O)[C@H](CC(C)C)NC(=O)[C@H](CC(C)C)NC(=O)OCc1ccccc1
How it was run: as §1

pinometostat = compound: CC(C)N(C[C@H]1O[C@@H](n2cnc3c(N)ncnc32)[C@H](O)[C@@H]1O)[C@H]1C[C@@H](CCc2nc3cc(C(C)(C)C)ccc3[nH]2)C1 [pinometostat]
How it was run: as §1

[14] = compound: CC1=C(C2=C(C=C1)C(=O)C3=CC=CC=C3N2CCCN)C
How it was run: as §1

[15] = compound: CC1=C(C(CC(=O)N1)C2=CC=C(C=C2)C(F)(F)F)C(=O)NC3=C(C=C4C(=C3)C=NN4)F
How it was run: as §1

Row | Target | log2 fold change (erlotinib) | log2 fold change [1] | log2 fold change [2] | log2 fold change [3] | log2 fold change [4] | log2 fold change [5] | log2 fold change [6] | log2 fold change [7] | log2 fold change [8] | log2 fold change [9] | log2 fold change (IRAK-1-4 Inhibitor I) | log2 fold change (ibrutinib) | log2 fold change [10] | log2 fold change (ralimetinib) | log2 fold change [11] | log2 fold change [12] | log2 fold change [13] | log2 fold change (pinometostat) | log2 fold change [14] | log2 fold change [15]
1 | RBBP6 (UniProt Q7Z6E9) | inactive: -0.01 | inactive: 0.005 | inactive: 0.014 | inactive: -0.034 | inactive: -0.037 | inactive: 0 | inactive: 0.025 | inactive: -0.005 | inactive: -0.067 | inactive: 0.003 | inactive: -0.099 | inactive: -0.082 | inactive: -0.114 | inactive: 0.02 | inactive: 0.044 | inactive: -0.089 | inactive: -0.023 | inactive: -0.078 | inactive: -0.022 | –
2 | RAD50 isoform 2 (UniProt Q92878) | inactive: 0.02 | inactive: 0.034 | inactive: 0.076 | inactive: 0.001 | inactive: 0.029 | inactive: 0 | inactive: 0.02 | inactive: 0.015 | inactive: -0.034 | inactive: 0.029 | inactive: -0.005 | inactive: -0.004 | inactive: -0.099 | inactive: -0.03 | inactive: -0.003 | inactive: -0.002 | inactive: -0.014 | inactive: -0.013 | inactive: 0.006 | –
3 | RABGAP1L isoform 3 (UniProt Q5R372) | inactive: 0.087 | inactive: 0.052 | inactive: 0.161 | inactive: -0.021 | inactive: 0.029 | inactive: 0.033 | inactive: -0.001 | inactive: 0.035 | inactive: 0.004 | inactive: 0.007 | inactive: 0.057 | inactive: 0.02 | inactive: 0.011 | inactive: -0.012 | inactive: -0.206 | inactive: -0.068 | inactive: -0.034 | inactive: -0.006 | inactive: 0.055 | –
4 | RBBP5 isoform 2 (UniProt Q15291) | inactive: -0.354 | inactive: 0 | inactive: -0.063 | inactive: 0.18 | inactive: 0.189 | inactive: 0.045 | inactive: 0.066 | inactive: -0.115 | inactive: 0.042 | inactive: -0.122 | – | inactive: -0.023 | inactive: 0.138 | inactive: -0.002 | inactive: -0.329 | inactive: -0.079 | inactive: 0.192 | – | inactive: -0.053 | inactive: 0.061
5 | RAC1 (UniProt P63000) | inactive: -0.066 | inactive: -0.062 | inactive: -0.003 | inactive: 0.053 | inactive: -0.194 | inactive: 0.015 | inactive: 0.048 | inactive: -0.05 | inactive: 0.017 | inactive: 0.005 | inactive: -0.053 | inactive: 0.036 | inactive: 0.038 | inactive: -0.01 | inactive: 0.27 | inactive: 0.051 | inactive: -0.026 | inactive: -0.127 | inactive: -0.002 | –
6 | RAB3IL1 (UniProt E9PK89) | inactive: -0.238 | inactive: -0.055 | inactive: 0.116 | inactive: -0.001 | inactive: 0.058 | inactive: 0.104 | inactive: -0.028 | inactive: 0.197 | inactive: -0.162 | inactive: 0.004 | inactive: -0.012 | inactive: -0.021 | inactive: -0.006 | inactive: -0.018 | inactive: -0.127 | inactive: -0.032 | inactive: 0.006 | inactive: 0.017 | inactive: -0.005 | –
7 | RAD51B (UniProt O15315) | inactive: 0.11 | inactive: -0.223 | inactive: 0.136 | inactive: -0.017 | inactive: -0.306 | inactive: 0 | – | inactive: 0 | inactive: -0.089 | inactive: 0.138 | – | inactive: -0.319 | inactive: 0.036 | – | inactive: -0.072 | inactive: -0.054 | – | – | inactive: 0.059 | inactive: 0.128
8 | RAB33B (UniProt Q9H082) | inactive: 0.059 | inactive: 0.031 | inactive: 0.028 | inactive: -0.029 | inactive: -0.08 | inactive: -0.012 | inactive: -0.079 | inactive: 0.025 | inactive: -0.016 | inactive: 0.118 | inactive: 0.072 | inactive: 0.016 | inactive: -0.019 | inactive: -0.092 | inactive: 0.027 | inactive: 0.113 | inactive: 0.112 | inactive: -0.015 | inactive: -0.002 | –
9 | RAF1 isoform 2 (UniProt P04049) | inactive: -0.048 | inactive: 0.08 | inactive: -0.129 | inactive: 0.04 | inactive: 0.197 | inactive: 0.02 | active: 0.513 | inactive: 0.01 | inactive: -0.121 | inactive: 0.022 | inactive: -0.038 | inactive: -0.058 | inactive: -0.263 | inactive: -0.054 | inactive: -0.072 | inactive: -0.12 | inactive: 0.066 | inactive: 0.29 | inactive: 0.09 | –
10 | RAB9A (UniProt P51151) | inactive: 0.037 | inactive: 0.05 | inactive: 0.017 | inactive: 0.016 | inactive: 0.046 | inactive: -0.022 | inactive: -0.005 | inactive: -0.01 | inactive: 0.017 | inactive: 0.056 | inactive: 0.018 | inactive: 0.018 | inactive: -0.001 | inactive: -0.001 | inactive: -0.014 | inactive: -0.126 | inactive: -0.008 | inactive: -0.027 | inactive: 0.06 | –
11 | RBM22 (UniProt Q9NW64) | inactive: -0.013 | inactive: -0.037 | inactive: -0.061 | inactive: -0.009 | inactive: -0.117 | inactive: 0.038 | inactive: -0.084 | inactive: -0.051 | inactive: 0 | inactive: 0.121 | inactive: 0.014 | inactive: -0.032 | inactive: 0.029 | inactive: 0.048 | inactive: 0.071 | inactive: 0.068 | inactive: 0.104 | inactive: 0.015 | inactive: 0.124 | –

A second format for some results above.
Row,Target,log2 fold change (erlotinib),log2 fold change [1],log2 fold change [2],log2 fold change [3],log2 fold change [4],log2 fold change [5],log2 fold change [6],log2 fold change [7],log2 fold change [8],log2 fold change [9],log2 fold change (IRAK-1-4 Inhibitor I),log2 fold change (ibrutinib),log2 fold change [10],log2 fold change (ralimetinib),log2 fold change [11],log2 fold change [12],log2 fold change [13],log2 fold change (pinometostat),log2 fold change [14],log2 fold change [15]
2,RAD50 isoform 2 (UniProt Q92878),inactive: 0.02,inactive: 0.034,inactive: 0.076,inactive: 0.001,inactive: 0.029,inactive: 0,inactive: 0.02,inactive: 0.015,inactive: -0.034,inactive: 0.029,inactive: -0.005,inactive: -0.004,inactive: -0.099,inactive: -0.03,inactive: -0.003,inactive: -0.002,inactive: -0.014,inactive: -0.013,inactive: 0.006,–
11,RBM22 (UniProt Q9NW64),inactive: -0.013,inactive: -0.037,inactive: -0.061,inactive: -0.009,inactive: -0.117,inactive: 0.038,inactive: -0.084,inactive: -0.051,inactive: 0,inactive: 0.121,inactive: 0.014,inactive: -0.032,inactive: 0.029,inactive: 0.048,inactive: 0.071,inactive: 0.068,inactive: 0.104,inactive: 0.015,inactive: 0.124,–
